Measurements reported in PubChem BioAssay AID652259 (Drosophila RNAi Screening Center, 2013).
Purpose: 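Genome-wide hunt for genes that control Wingless pathway activity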 (primary screen). Cells: Drosophila clone 8 imaginal disc epithelial cells. Reagent: long dsRNA against Drosophila genes. Treatment: pathway stimulated by co-transfected Wingless expression plasmid. Read-out: 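Dual luciferase reads per well after Wingless plasmid stimulation: reporter firefly light and Renilla control light; activity is firefly divided by Renilla, a ratio not deposited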. Scale: firefly reporter light: higher = more Wg reporter light, before normalisation; Renilla control light: higher = more transfected or surviving cells. Call rule: 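a knock-down is a candidate when at least two out of four statistical tests show it departing from its plate mean; one test alone signals a weak candidate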. Meaning of the calls: active = candidate regulator (raises or lowers reporter); inactive = not a candidate.
The deposit covers about 22,000 reagents; this is an unselected part of those with a known target gene and a result. In the full data, 233 (1.1%) got an active call. 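Light values are raw, unnormalised plate reads; the ratio scores behind the reporter calls were not deposited.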 The record does not give: the amount of reagent, the time to read-out, the dose of the treatment.

Gene	amplicon	firefly reporter light, replicate 1	firefly reporter light, replicate 2	Renilla control light, replicate 1	Renilla control light, replicate 2	Outcome
CG13856	DRSC14706	37364		7280		inactive
Rad9	DRSC11263	5914		2387		inactive
CG1418	DRSC06447	2807	6422	770	2620	inactive
Bbd	DRSC06709	7536		2428		inactive
CG31883	DRSC02561	15845		2844		inactive
Obp99b	DRSC16264	8000		2901		inactive
Lcp65Ag3	DRSC10345	1430	10599	1277	4555	inactive
CG10311	DRSC14228	21872		4380		inactive
CG33309	DRSC01421	19831		8218		inactive
QC	DRSC09736	8836		3754		inactive
TM4SF	DRSC04661	11485		4727		inactive
scro	DRSC17099	3624		936		inactive
scro	DRSC17102	23904		21200		inactive
CaBP1	DRSC01984	11316		3286		inactive
CG17985	DRSC06702	3149	8973	1242	3394	inactive
CG5276	DRSC15759	13570		2119		inactive
Phk-3	DRSC04547	2530	5344	752	2377	inactive
CG12177	DRSC19437	39299		18439		inactive
CG12177	DRSC21524	7.34e5	7.38e5	4.63e5	3.63e5	inactive

Continued; the last 4 above are carried over.
Gene	amplicon	firefly reporter light, replicate 1	firefly reporter light, replicate 2	Renilla control light, replicate 1	Renilla control light, replicate 2	Outcome
CG5276	DRSC15759	13570		2119		inactive
Phk-3	DRSC04547	2530	5344	752	2377	inactive
CG12177	DRSC19437	39299		18439		inactive
CG12177	DRSC21524	7.34e5	7.38e5	4.63e5	3.63e5	inactive
Doc2	DRSC22716	4.72e5	5.02e5	1.88e5	1.76e5	inactive
Tnks	DRSC14154	11842		10501		inactive
CG32554	DRSC22713	5.41e5	5.25e5	1.69e5	1.84e5	inactive
CG8260	DRSC20098	16284		9021		inactive
teq	DRSC10298	1656	7520	1549	2720	inactive
teq	DRSC11301	3072	6251	1627	2808	inactive
teq	DRSC11302	2145	10976	1418	3301	inactive
CG17760	DRSC06694	11760		4221		inactive
Obp83b	DRSC12360	12416		3672		inactive
CG15873	DRSC04277	2416	7460	695	2913	inactive
UbcE2M	DRSC10828	4120		2032		inactive
CkIIalpha	DRSC11946	7681		3159		inactive
stau	DRSC07698	17234		4962		inactive
CG13405	DRSC08310	6566		3030		inactive
Sec5	DRSC00714	7241		4136		inactive
Fitm	DRSC09772	5136		1850		inactive
L	DRSC06666	3746		1945		inactive
L	DRSC06668	7202		2065		inactive
rhi	DRSC05996	6128		2218		inactive
Jon74E	DRSC10617	5552		2768		inactive
Ugt37C1	DRSC07416	6365		2449		inactive
cocoon	DRSC10916	7440		3416		inactive
LManVI	DRSC03224	2560	4003	997	2000	inactive
ND-B14.5A	DRSC18500	23495		24523		inactive
Saysd1	DRSC14664	15612		13640		inactive
CG34330	DRSC20043	23309		10472		inactive
oys	DRSC05203	20048		11737		inactive
oys	DRSC06751	5827		2346		inactive
CG11076	DRSC17197	14760		10748		inactive
Rx	DRSC03837	28108		11718		inactive
Rx	DRSC04652	3337	9354	1284	4017	inactive
